Measurements reported in article doi:10.1101/2025.08.22.671707.
Results are given in words; binding and its absence hold for the method and conditions named. In cells and extracts the contact can be indirect. Some entries that bind do so weakly or less than the wild type. For some assays here: Sequences can lack the tags named with a protein.

By UniProt entry, the sequences of proteins in these tests, tags left out. Where a name states a change or a piece, a line headed by the entry shows the natural chain unless it says otherwise.
UniProt Q01968: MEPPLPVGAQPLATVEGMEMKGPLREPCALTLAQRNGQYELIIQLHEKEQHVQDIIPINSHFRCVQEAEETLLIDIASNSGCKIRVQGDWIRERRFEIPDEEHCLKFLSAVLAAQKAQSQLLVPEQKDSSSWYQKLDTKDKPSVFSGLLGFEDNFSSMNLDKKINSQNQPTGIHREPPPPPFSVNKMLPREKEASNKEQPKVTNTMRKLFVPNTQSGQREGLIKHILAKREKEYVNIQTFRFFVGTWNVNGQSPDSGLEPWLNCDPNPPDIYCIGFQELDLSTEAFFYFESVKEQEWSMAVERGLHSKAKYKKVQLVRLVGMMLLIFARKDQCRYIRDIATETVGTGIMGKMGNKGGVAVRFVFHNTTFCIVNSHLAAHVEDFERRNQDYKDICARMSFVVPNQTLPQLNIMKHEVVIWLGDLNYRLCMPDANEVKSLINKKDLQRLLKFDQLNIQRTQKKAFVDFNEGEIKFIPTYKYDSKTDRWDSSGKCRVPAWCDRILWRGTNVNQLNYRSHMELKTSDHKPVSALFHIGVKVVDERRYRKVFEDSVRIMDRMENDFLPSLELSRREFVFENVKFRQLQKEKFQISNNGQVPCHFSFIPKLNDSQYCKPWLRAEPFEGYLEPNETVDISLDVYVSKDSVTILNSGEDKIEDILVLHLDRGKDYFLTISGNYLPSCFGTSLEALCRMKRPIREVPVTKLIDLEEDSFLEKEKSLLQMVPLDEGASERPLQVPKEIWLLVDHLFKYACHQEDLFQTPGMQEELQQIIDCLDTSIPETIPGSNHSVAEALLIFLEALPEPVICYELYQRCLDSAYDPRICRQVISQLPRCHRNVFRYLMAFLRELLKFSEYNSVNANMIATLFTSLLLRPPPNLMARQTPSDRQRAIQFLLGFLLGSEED
UniProt P61006: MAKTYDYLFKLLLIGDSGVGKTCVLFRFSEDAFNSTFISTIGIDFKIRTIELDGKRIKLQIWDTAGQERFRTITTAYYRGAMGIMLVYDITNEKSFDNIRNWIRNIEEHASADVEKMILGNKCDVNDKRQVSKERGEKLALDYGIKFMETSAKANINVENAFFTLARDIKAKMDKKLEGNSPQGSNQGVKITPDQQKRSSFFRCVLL
UniProt P55258: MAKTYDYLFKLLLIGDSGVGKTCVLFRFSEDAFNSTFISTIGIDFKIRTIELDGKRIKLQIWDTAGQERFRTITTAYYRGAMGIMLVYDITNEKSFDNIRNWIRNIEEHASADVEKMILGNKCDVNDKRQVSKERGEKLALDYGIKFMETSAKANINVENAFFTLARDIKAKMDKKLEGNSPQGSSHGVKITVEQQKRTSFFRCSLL

How the values were obtained:
[1] = biological target: GST-OCRL (UniProt Q01968); experiment: pull-down
[2] = biological target: T1, C9orf72-GFP (UniProt Q96LT7); experiment: co-IP
T1 sequence: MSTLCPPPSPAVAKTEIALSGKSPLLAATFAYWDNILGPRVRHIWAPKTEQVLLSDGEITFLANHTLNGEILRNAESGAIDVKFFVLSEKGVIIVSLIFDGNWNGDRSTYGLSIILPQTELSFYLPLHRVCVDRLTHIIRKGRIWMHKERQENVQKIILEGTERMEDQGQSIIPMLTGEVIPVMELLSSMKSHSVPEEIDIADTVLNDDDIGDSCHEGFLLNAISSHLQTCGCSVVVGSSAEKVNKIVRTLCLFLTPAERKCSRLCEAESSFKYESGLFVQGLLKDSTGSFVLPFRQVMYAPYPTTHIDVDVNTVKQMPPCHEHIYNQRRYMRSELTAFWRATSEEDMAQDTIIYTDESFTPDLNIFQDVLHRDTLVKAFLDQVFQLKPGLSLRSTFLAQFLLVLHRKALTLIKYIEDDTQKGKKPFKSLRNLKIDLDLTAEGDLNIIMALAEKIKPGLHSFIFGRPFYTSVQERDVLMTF

[3] = biological target: T2, SMCR8-GFP (UniProt Q8TEV9); experiment: co-IP
T2 sequence: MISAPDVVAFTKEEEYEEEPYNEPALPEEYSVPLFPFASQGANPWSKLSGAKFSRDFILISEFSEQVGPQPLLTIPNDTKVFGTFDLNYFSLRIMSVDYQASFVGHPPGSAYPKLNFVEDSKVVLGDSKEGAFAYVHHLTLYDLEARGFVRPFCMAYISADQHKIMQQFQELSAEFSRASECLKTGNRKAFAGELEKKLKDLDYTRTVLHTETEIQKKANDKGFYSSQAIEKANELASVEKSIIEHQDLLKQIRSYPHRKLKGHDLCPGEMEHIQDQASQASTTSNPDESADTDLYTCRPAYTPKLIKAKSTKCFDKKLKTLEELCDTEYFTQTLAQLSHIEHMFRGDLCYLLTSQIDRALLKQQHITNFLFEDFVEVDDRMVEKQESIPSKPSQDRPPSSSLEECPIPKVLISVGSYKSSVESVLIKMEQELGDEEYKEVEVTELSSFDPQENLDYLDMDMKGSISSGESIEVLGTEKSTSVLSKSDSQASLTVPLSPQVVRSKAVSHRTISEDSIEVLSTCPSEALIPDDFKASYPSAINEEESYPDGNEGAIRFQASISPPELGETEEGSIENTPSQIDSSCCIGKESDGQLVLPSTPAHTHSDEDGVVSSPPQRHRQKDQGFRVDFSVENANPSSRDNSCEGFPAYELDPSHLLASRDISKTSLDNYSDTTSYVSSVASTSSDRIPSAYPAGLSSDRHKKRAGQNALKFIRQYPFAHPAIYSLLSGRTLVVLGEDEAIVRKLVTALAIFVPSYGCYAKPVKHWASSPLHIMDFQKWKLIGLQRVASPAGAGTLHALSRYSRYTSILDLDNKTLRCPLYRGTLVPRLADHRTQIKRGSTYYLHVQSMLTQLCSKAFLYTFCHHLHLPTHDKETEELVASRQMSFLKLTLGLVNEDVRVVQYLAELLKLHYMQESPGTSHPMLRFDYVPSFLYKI

[4] = biological target: GFP-tagged RAB8A Q67L (GTP-bound) (UniProt P61006); experiment: co-IP

Molecule: RAB8A (GTP-bound form), endogenous in BV2 cells (from UniProt P55258 1-207)
- binding [1]: binds

Molecule: pT72-RAB8A (from UniProt P55258 1-207)
- binding [2]: binds
- binding [3]: binds

B1: C9orf72 (of the C9orf72/SMCR8 complex, in HEK293T cells) (protein, UniProt Q96LT7 1-481)
chain: MSTLCPPPSPAVAKTEIALSGKSPLLAATFAYWDNILGPRVRHIWAPKTEQVLLSDGEITFLANHTLNGEILRNAESGAIDVKFFVLSEKGVIIVSLIFDGNWNGDRSTYGLSIILPQTELSFYLPLHRVCVDRLTHIIRKGRIWMHKERQENVQKIILEGTERMEDQGQSIIPMLTGEVIPVMELLSSMKSHSVPEEIDIADTVLNDDDIGDSCHEGFLLNAISSHLQTCGCSVVVGSSAEKVNKIVRTLCLFLTPAERKCSRLCEAESSFKYESGLFVQGLLKDSTGSFVLPFRQVMYAPYPTTHIDVDVNTVKQMPPCHEHIYNQRRYMRSELTAFWRATSEEDMAQDTIIYTDESFTPDLNIFQDVLHRDTLVKAFLDQVFQLKPGLSLRSTFLAQFLLVLHRKALTLIKYIEDDTQKGKKPFKSLRNLKIDLDLTAEGDLNIIMALAEKIKPGLHSFIFGRPFYTSVQERDVLMTF
- binding [4]: binds

B2: SMCR8 (of the C9orf72/SMCR8 complex, in HEK293T cells) (protein, UniProt Q8TEV9 1-937)
chain: MISAPDVVAFTKEEEYEEEPYNEPALPEEYSVPLFPFASQGANPWSKLSGAKFSRDFILISEFSEQVGPQPLLTIPNDTKVFGTFDLNYFSLRIMSVDYQASFVGHPPGSAYPKLNFVEDSKVVLGDSKEGAFAYVHHLTLYDLEARGFVRPFCMAYISADQHKIMQQFQELSAEFSRASECLKTGNRKAFAGELEKKLKDLDYTRTVLHTETEIQKKANDKGFYSSQAIEKANELASVEKSIIEHQDLLKQIRSYPHRKLKGHDLCPGEMEHIQDQASQASTTSNPDESADTDLYTCRPAYTPKLIKAKSTKCFDKKLKTLEELCDTEYFTQTLAQLSHIEHMFRGDLCYLLTSQIDRALLKQQHITNFLFEDFVEVDDRMVEKQESIPSKPSQDRPPSSSLEECPIPKVLISVGSYKSSVESVLIKMEQELGDEEYKEVEVTELSSFDPQENLDYLDMDMKGSISSGESIEVLGTEKSTSVLSKSDSQASLTVPLSPQVVRSKAVSHRTISEDSIEVLSTCPSEALIPDDFKASYPSAINEEESYPDGNEGAIRFQASISPPELGETEEGSIENTPSQIDSSCCIGKESDGQLVLPSTPAHTHSDEDGVVSSPPQRHRQKDQGFRVDFSVENANPSSRDNSCEGFPAYELDPSHLLASRDISKTSLDNYSDTTSYVSSVASTSSDRIPSAYPAGLSSDRHKKRAGQNALKFIRQYPFAHPAIYSLLSGRTLVVLGEDEAIVRKLVTALAIFVPSYGCYAKPVKHWASSPLHIMDFQKWKLIGLQRVASPAGAGTLHALSRYSRYTSILDLDNKTLRCPLYRGTLVPRLADHRTQIKRGSTYYLHVQSMLTQLCSKAFLYTFCHHLHLPTHDKETEELVASRQMSFLKLTLGLVNEDVRVVQYLAELLKLHYMQESPGTSHPMLRFDYVPSFLYKI
- binding [4]: binds
